Measured values taken from PubChem BioAssay AID540276 (National Center for Advancing Translational Sciences (NCATS), 2011).
“And” between values parts separate entries of the source, which are not always exact repeats. Equal entries are not always repeated. Out of some 300,000 compounds screened, about 5,400 (1.8%) were called active. This list was built around the results that the source calls inconclusive (neither active nor inactive); the mix of calls is not that of the screen. Calls follow the shape of the full dose curve; tested in HEK293 cells. Potencies of inconclusive entries are doubtful fits and often do not repeat.

Test: qHTS for inhibitors of binding or entry into cells for Marburg Virus
Details: Marburg virus pseudotyped entry inhibition, cell reporter; series mostly up to 37.8 µM
Potency is read from the fitted curve at half-maximal effect.

| Compound | Potency |
| --- | --- |
| O=C(CN1CCN(C(=O)c2ccco2)CC1)Nc1ccc(F)cc1F | inconclusive: 0.562 µM [activator, full curve, poor fit] |
| Cn1nnnc1SCC(=O)Nc1ccc(N2CCOCC2)cc1 | inconclusive: 29.1 µM [activator, single point] |
| Cc1cccc(Nc2nnc(SCC3CCCCO3)s2)c1 (stereo not drawn) | inconclusive: 6.31 µM [inhibitor, single point] |
| COc1ccc(CCNC(=O)c2n[nH]c3ccccc23)cc1 | inconclusive: 3.16 µM [activator, full curve, poor fit] |
| CCOC(=O)/C(C#N)=C\C=C1C=CN(C)C=C1 | inconclusive: 5.62 µM [activator, single point] |
| CCC/C(=N\NC(=O)CCC(=O)NCc1ccccc1)c1ccccc1 | inconclusive: 31.6 µM [inhibitor, partial curve, poor fit] |
| CCC(C)(C)n1nnnc1C(c1cc2cc(OC)ccc2[nH]c1=O)N1CCc2ccccc21 (stereo not drawn) | inactive and inconclusive: 501 nM [inhibitor, full curve, poor fit] |
| CN(C)/N=C/c1ccc(P(c2ccc(/C=N/N(C)C)o2)c2ccc(/C=N/N(C)C)o2)o1 | inconclusive: 35.5 µM [inhibitor, single point] |
| COc1cc(C=O)ccc1OCc1ccccc1Br | inactive |
| COCCCNc1nc(-c2ccncc2)nc2ccccc12 | inconclusive: 10 µM [inhibitor, partial curve, poor fit] |
| COC(=O)c1sc(N2CCN(c3ccc(Cl)cc3)CC2)nc1N | inconclusive: 7.08 µM [inhibitor, partial curve, poor fit] |
| CCN(CC(=O)NCc1ccc(F)cc1)CC(=O)Nc1ccc(S(=O)(=O)N2CCCC2)cc1 | inactive |
| COc1cccc(/C=N/NC(=O)c2[nH]c(C)c(C(=O)N/N=C/c3cccc(OC)c3)c2C)c1 | inconclusive: 10 µM [inhibitor, partial curve, poor fit] |
| O=[N+]([O-])c1cc(Cl)ccc1N1CCCCC1 | inconclusive: 1.12 µM [inhibitor, full curve, poor fit] |
| Cc1cccc(C)c1NC(=S)N(Cc1cccnc1)Cc1ccccc1Cl | inconclusive: 10 µM [inhibitor, partial curve, poor fit] |
| COc1cccc(-c2ccc(NC(=O)C3CCCN(Cc4cnc(C)s4)C3)cc2)c1 (stereo not drawn) | inconclusive: 35.5 µM [inhibitor, single point] |
| CCOC(=O)c1c(N)n(CCN2CCCCC2)c2nc3ccccc3nc12 | inconclusive: 23.1 µM [inhibitor, single point] |
| Oc1c(C=C2N=c3ccccc3=N2)sc(=S)n1-c1ccc(F)cc1 | inactive |
| CC(C)CC(=O)Nc1nc2c(s1)CC(C(C)(C)C)CC2 (stereo not drawn) | inconclusive: 35.5 µM [activator, single point] |
| Cc1nn(-c2ccccc2)c(N)c1N=Nc1ccccc1 | inconclusive: 1.16 µM [activator, partial curve] |
| COc1cccc2cc(-c3csc(CCn4nc(C)cc4C)n3)c(=O)oc12 | inconclusive: 0.316 µM [inhibitor, partial curve, poor fit] |
| Cc1cccnc1NC(=O)Nc1ccc(F)cc1 | inactive |

Of the compounds above, 3 have a Cl atom:

| Compound | Potency |
| --- | --- |
| COC(=O)c1sc(N2CCN(c3ccc(Cl)cc3)CC2)nc1N | inconclusive: 7.08 µM [inhibitor, partial curve, poor fit] |
| O=[N+]([O-])c1cc(Cl)ccc1N1CCCCC1 | inconclusive: 1.12 µM [inhibitor, full curve, poor fit] |
| Cc1cccc(C)c1NC(=S)N(Cc1cccnc1)Cc1ccccc1Cl | inconclusive: 10 µM [inhibitor, partial curve, poor fit] |

Additional entries.

| Compound | Potency |
| --- | --- |
| Cc1nc(-c2ccccc2)sc1C(=O)Nc1ccc(S(N)(=O)=O)cc1 | inconclusive: 35.5 µM [inhibitor, single point] |
| COc1cc(S(=O)(=O)N(Cc2ccc(C)cc2)C2CCCCC2)ccc1-n1cnnn1 | inconclusive: 14.6 µM [inhibitor, partial curve, poor fit] |
| COC(=O)c1cc(NC(=O)c2ccoc2C)cc(C(=O)OC)c1 | inactive |
| CCOC(=O)c1c(C)sc(-c2c(-c3ccc4c(c3)OCCO4)[nH]c3c2c(=O)n(C)c(=O)n3C)c1O | inactive |
| CCCCCCC1(C)NC(=S)N(c2ccccc2)N1 (stereo not drawn) | inactive |
| COc1ccc(C(=O)CSc2nnc(CNc3nc(-c4ccccc4)cs3)n2C)cc1 | inconclusive: 14.1 µM [inhibitor, partial curve, poor fit] |
| COc1ccc(N(CC(=O)NC2CCS(=O)(=O)C2)S(=O)(=O)c2cc(C)ccc2C)cc1 (stereo not drawn) | inconclusive: 5.62 µM [inhibitor, single point] |
| O=C(CSc1ccccn1)N1CCN(c2cccc(Cl)c2)CC1 | inactive |
| CCN1CCN(c2ncnc3sc(C(=O)Nc4ccccc4F)c(C)c23)CC1 | inconclusive: 14.1 µM [inhibitor, single point] |
| CC(C)Cn1cc(Cl)c(=O)n(CC(C)C)c1=O | inconclusive: 3.98 µM [inhibitor, single point] |
| O=C1NC(=S)N/C1=C\c1cccc([N+](=O)[O-])c1 | inactive |
| COC(=O)CSc1nc(NC(C)(C)C)nc(N(C)C)n1 | inactive |
| CC(=O)N1CCc2cc(S(=O)(=O)NC(CC(C)C)C(=O)Nc3ccc(C(C)C)cc3)ccc21 (stereo not drawn) | inactive |
| CCOC(=O)Cc1cnc(N)s1 | inconclusive: 3.16 µM [inhibitor, single point] |
| CC(C)(C)NC(=O)C(c1ccco1)N(Cc1ccc2c(c1)OCO2)C(=O)c1snc(C(N)=O)c1N (stereo not drawn) | inconclusive: 35.5 µM [inhibitor, partial curve, poor fit] |
| COc1ccc(-c2noc(C3CCCN(S(=O)(=O)c4cccc(Cl)c4)C3)n2)cc1OC (stereo not drawn) | inconclusive: 10.3 µM [inhibitor, partial curve] |
| O=C(CNS(=O)(=O)c1ccccc1)N/N=C/c1ccccc1[N+](=O)[O-] | inactive |
| O=S(=O)(Nc1ccc(S(=O)(=O)N2CCOCC2)cc1)c1ccc(Br)cc1 | inactive |
| CCn1c(C(=O)N2CCC(C(=O)N3CCN(c4cc(C)ccc4C)CC3)CC2)cc2sccc21 | inconclusive: 3.16 µM [inhibitor, partial curve, poor fit] |
| CCOC(=O)c1c(NC(=O)Cn2nc([N+](=O)[O-])c(Br)c2C)sc2c1CCC(C)C2 (stereo not drawn) | inconclusive: 32.6 µM [inhibitor, single point] |
| Cc1ccccc1CC(=O)N(CCN(C)C)CC1CCCN(Cc2ccccc2F)C1 (stereo not drawn) | inconclusive: 14.1 µM [inhibitor, single point] |
